Results reported in publication PMC12113857.

Experiments:
Assay in all cases: EMSA
[1] = test system: T1, MprA(D51E) (Corynebacterium glutamicum ATCC 13032); details: Buffer P: 50 mM Tris-HCl pH 7.5, 50 mM KCl, 10 mM MgCl2, 0.5 mM EDTA, 10% glycerol; 30 min at 20 C; DNA 25-107 nM, protein 0-64-fold molar excess; 6% native PAGE; recombinant protein; residues 1-232; protein details: C-terminal His6; probe letters rebuilt from the primers and the genome
T1 sequence (looked up): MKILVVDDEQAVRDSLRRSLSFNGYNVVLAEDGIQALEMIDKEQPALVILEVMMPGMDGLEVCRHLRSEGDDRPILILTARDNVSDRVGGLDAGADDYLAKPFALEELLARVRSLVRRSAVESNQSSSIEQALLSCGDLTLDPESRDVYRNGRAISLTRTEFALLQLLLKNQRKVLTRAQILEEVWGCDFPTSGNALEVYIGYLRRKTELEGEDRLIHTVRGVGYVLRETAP

[2] = molecular target: MprA, phosphorylated with acetylphosphate (Corynebacterium glutamicum ATCC 13032) (UniProt H7C6D1); details: acetylphosphate; Buffer P: 50 mM Tris-HCl pH 7.5, 50 mM KCl, 10 mM MgCl2, 0.5 mM EDTA, 10% glycerol; 30 min at 20 C; DNA 25-107 nM, protein 0-64-fold molar excess; 6% native PAGE; recombinant protein; protein details: C-terminal His6; probe letters rebuilt from the primers and the genome
[3] = test system: T2, MprA, unphosphorylated (Corynebacterium glutamicum ATCC 13032); details: no acetylphosphate; Buffer P: 50 mM Tris-HCl pH 7.5, 50 mM KCl, 10 mM MgCl2, 0.5 mM EDTA, 10% glycerol; 30 min at 20 C; DNA 25-107 nM, protein 0-64-fold molar excess; 6% native PAGE; recombinant protein; residues 1-232; protein details: C-terminal His6; probe letters rebuilt from the primers and the genome
T2 sequence (looked up): T1 sequence (looked up) with E51D

[4] = test system: T3, MprA(D51N) (Corynebacterium glutamicum ATCC 13032); details: Buffer P: 50 mM Tris-HCl pH 7.5, 50 mM KCl, 10 mM MgCl2, 0.5 mM EDTA, 10% glycerol; 30 min at 20 C; DNA 25-107 nM, protein 0-64-fold molar excess; 6% native PAGE; recombinant protein; residues 1-232; protein details: C-terminal His6; probe letters rebuilt from the primers and the genome
T3 sequence (looked up): T1 sequence (looked up) with E51N

| Sequence | binding result [1] | binding result [2] | binding result [3] | binding result [4] |
| --- | --- | --- | --- | --- |
| AGAGGATCCGATCGAGAAGTCGCGCCGGGATCCAGACGATGTGAACAAGGCGCTGGCGGCGGCGGATATGTATGTGTTGATGAATCAGCCGGACACAGCGCTCGCGCACCTTGCAGCACTATTGCCAAAACCGGAGGCTGCCCGGCGGATCGTGGAGTTGCTGAACTTGTTTGATCCGCTGGACCTGGTCGCATTGGAAATCAGGGCGCAGGTGGGGAATGCAATGAGCTAAGAAAACACTTTAAATATTCTAAGAAACAGTTCAAGTTTTGCTGTAGTTTAGATATGACAAGGCAATGACACAAGGAGACAA (double strand) [cg0793 promoter] | binds | – | – | – |
| CGATACCCTTTTCGTCTTCCAGTCCGTGACAGACTTCCTCCCAATTAAGACGTCCACGCGTTGGAACATATTTCACTTATGCTAACACCTCTTAAGCATAAAGAAGCCAGTTACCTCCTCATTTTAAGAGAAGATAACTGGCTCTTGTTAAATTCTTACCTACAAAAGGTTGTAGGCGATGAATTTAAGGTTTAGAACTGCTCTACGTCCACGAGACCGAGCTGTGCTGCCTTAACCAGACGGCGTGGGATGCGAACGGTCTGACCGTCGATCTTGACCTCCTGAAGGGCGACATTGTCG (double strand) [mprA promoter] | – | binds | binds more weakly | – |
| GATTTGATTATGAACCCTGTGGCTGGGGCGTCACTCTAAGTAGTCTGAACACTTCCTGTGAGCTCTTTAGTGGTTTAATCATCGACATTTTCGAACCCGCTGCGAATGGGTTCCCCTGGCAAATCAATAGTGATTCTCGTTCCGCCATCATCTGATTCACCCACAACGAGTTGGCCACCATGCCGATTCACAACCTGATTCACGATGGCAAGACCTAATCCCGATCCCGGCATGGAACGGGAGCTGACGGCGCGATAGAACCGTTCCAAAACTAATCCTCGTTCTTTTTCAGCAATTCCAGGCCCT (double strand) [htrA promoter] | binds | – | – | no binding |
| TAATCGCGATGGCACCAGTGGAGCCGTTGCCATTGGTGGTGGCAGCCAAAGTGGTTAGCAGCTGGCCAGTCATTTCATCCGGGGCGGGGAGACCGAACTCGGCGGCGTCTTCACGAGCGCGCGCTACAGCAGCGTCGGTTTCAGTAGTGGACTCGACATAAGTGCGAAGATACTCGAAGGCGTTACTCACGCGTTATAGTCTAGAGCGAGCAGGCGAGATGTGAAGTACCTACACGCATTAAGTGCAAATGAATTCACAATTGCCAGAAGATGCACAGGATGTAATCTAGATTTCCCAAGTTCAGTGGGGCAAA (double strand) [sigE promoter] | binds | – | – | no binding |

Substitutions are numbered along the chain they refer to. For some of these results: No signal at the amounts used counts as a negative. For some of these results: Protein sequences can lack the tags named with them. For some of these results: For at least one entry, the source does not settle the construct or the ends of the probe. For some of these results: The comparison behind a weaker result is the experiment's own reference, which may not be listed here.
